We go through two molecules from doi:10.1101/2021.07.02.450967 (bioRxiv, 2021).

Protein sequences, listed by entry. Tags and fused reporters are not part of them.
UniProt Q9BT81: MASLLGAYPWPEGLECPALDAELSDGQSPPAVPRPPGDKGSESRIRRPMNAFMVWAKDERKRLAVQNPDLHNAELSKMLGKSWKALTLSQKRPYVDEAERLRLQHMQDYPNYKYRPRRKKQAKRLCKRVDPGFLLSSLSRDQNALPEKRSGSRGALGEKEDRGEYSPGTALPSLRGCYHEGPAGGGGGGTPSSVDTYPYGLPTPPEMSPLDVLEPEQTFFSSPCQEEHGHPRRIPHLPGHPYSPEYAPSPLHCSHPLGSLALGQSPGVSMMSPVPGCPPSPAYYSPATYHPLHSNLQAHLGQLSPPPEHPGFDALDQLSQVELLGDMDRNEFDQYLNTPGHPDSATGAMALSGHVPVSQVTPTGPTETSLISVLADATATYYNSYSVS
UniProt Q06330: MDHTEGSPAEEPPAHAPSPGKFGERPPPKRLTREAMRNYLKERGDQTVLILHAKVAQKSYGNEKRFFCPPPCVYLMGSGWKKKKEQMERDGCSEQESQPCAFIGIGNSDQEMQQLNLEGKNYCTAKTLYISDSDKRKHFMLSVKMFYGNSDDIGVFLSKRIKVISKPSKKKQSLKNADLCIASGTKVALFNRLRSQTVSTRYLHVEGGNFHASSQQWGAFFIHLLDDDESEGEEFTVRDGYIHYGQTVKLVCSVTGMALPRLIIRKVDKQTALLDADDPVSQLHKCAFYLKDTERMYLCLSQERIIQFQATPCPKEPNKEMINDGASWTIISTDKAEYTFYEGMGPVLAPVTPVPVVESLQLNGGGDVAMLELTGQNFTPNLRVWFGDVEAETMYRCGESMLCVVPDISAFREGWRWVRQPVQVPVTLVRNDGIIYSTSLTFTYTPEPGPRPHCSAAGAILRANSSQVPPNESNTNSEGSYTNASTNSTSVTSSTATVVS

These are yes or no findings as the source states them, for the method shown. Some results given as binding are weak or reduced against the parent protein; the word gives no strength.

The target of this experiment is SOX7, made in the cell-free protein production system (UniProt Q9BT81). Nature of the experiment: AlphaScreen or HTRF. For orientation: In Alpha technology, singlet oxygen from a donor bead excites a nearby acceptor bead.

“RBPJ, made in the cell-free protein production system (from UniProt Q06330 1-500)”: the binding result is “binds”.

B1: HEY1, made in the cell-free protein production system (natural protein)
chain: MKRAHPEYSSSDSELDETIEVEKESADENGNLSSALGSMSPTTSSQILARKRRRGIIEKRRRDRINNSLSELRRLVPSAFEKQGSAKLEKAEILQMTVDHLKMLHTAGGKGYFDAHALAMDYRSLGFRECLAEVARYLSIIEGLDASDPLRVRLVSHLNNYASQREAASGAHAGLGHIPWGTVFGHHPHIAHPLLLPQNGHGNAGTTASPTEPHHQGRLGSAHPEAPALRAPPSGSLGPVLPVVTSASKLSPPLLSSVASLSAFPFSFGSFHLLSPNALSPSAPTQAANLGKPYRPWGTEIGAF
With B1, the binding entry is “binds”.
